Reference: doi:10.1101/2025.05.20.655052

Sequences of proteins named here, by UniProt entry; tags and fusion partners are left off.
UniProt Q5TGZ0: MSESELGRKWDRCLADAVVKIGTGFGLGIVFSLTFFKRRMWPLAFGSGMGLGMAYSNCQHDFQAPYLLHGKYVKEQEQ
UniProt Q5XKP0: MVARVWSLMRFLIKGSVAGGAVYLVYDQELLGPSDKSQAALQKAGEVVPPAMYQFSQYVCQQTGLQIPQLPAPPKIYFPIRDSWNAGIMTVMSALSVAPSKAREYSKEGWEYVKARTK

Columns and labels:
Assay in all cases: proximity labelling
MIC10-APEX2-Myc (human) = MIC10-APEX2-Myc (human) (UniProt Q5TGZ0)
MIC13-APEX2-Myc (human) = MIC13-APEX2-Myc (human) (UniProt Q5XKP0)
MIC26-APEX2-Myc (human) = target: T1, MIC26-APEX2-Myc (human) (UniProt Q9BUR5)
T1 sequence: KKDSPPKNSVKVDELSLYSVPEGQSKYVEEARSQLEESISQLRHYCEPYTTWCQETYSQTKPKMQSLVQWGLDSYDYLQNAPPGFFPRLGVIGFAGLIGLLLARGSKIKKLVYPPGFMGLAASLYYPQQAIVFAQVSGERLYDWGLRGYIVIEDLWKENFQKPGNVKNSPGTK

MIC27-APEX2-Myc (human) = target: T2, MIC27-APEX2-Myc (human) (UniProt Q6UXV4)
T2 sequence: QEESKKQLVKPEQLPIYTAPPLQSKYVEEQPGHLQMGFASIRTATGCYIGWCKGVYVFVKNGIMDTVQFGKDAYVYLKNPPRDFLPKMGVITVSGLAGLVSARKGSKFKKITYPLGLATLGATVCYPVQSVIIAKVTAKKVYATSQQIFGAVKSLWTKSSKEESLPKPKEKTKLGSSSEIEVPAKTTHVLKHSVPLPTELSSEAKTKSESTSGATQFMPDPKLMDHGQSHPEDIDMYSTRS

Binder | binding (MIC10-APEX2-Myc (human)) | binding (MIC13-APEX2-Myc (human)) | binding (MIC26-APEX2-Myc (human)) | binding (MIC27-APEX2-Myc (human))
SAMM50 (protein, UniProt Q9Y512 1-469) MGTVHARSLEPLPSSGPDFGGLGEEAEFVEVEPEAKQEILENKDVVVQHVHFDGLGRTKDDIIICEIGDVFKAKNLIEVMRKSHEAREKLLRLGIFRQVDVLIDTCQGDDALPNGLDVTFEVTELRRLTGSYNTMVGNNEGSMVLGLKLPNLLGRAEKVTFQFSYGTKETSYGLSFFKPRPGNFERNFSVNLYKVTGQFPWSSLRETDRGMSAEYSFPIWKTSHTVKWEGVWRELGCLSRTASFAVRKESGHSLKSSLSHAMVIDSRNSSILPRRGALLKVNQELAGYTGGDVSFIKEDFELQLNKQLIFDSVFSASFWGGMLVPIGDKPSSIADRFYLGGPTSIRGFSMHSIGPQSEGDYLGGEAYWAGGLHLYTPLPFRPGQGGFGELFRTHFFLNAGNLCNLNYGEGPKAHIRKLAECIRWSYGAGIVLRLGNIARLELNYCVPMGVQTGDRICDGVQFGAGIRFL | binds | binds | binds | binds
Metaxin 1 (protein, UniProt Q13505 1-466) MLLGGPPRSPRSGTSPKGPWSSTGHVQFGKSPQTWPRRTRPRSPEPAAPSGVRGSTWTRRRDSPRRAGPTALSRYVGHLWMGRRPPSPEARGPVPRSSAASRARRSLASPGISPGPLTATIGGAVAGGGPRQGRAEAHKEVFPGQRVGKMAAPMELFCWSGGWGLPSVDLDSLAVLTYARFTGAPLKVHKISNPWQSPSGTLPALRTSHGEVISVPHKIITHLRKEKYNADYDLSARQGADTLAFMSLLEEKLLPVLVHTFWIDTKNYVEVTRKWYAEAMPFPLNFFLPGRMQRQYMERLQLLTGEHRPEDEEELEKELYREARECLTLLSQRLGSQKFFFGDAPASLDAFVFSYLALLLQAKLPSGKLQVHLRGLHNLCAYCTHILSLYFPWDGAEVPPQRQTPAGPETEEEPYRRRNQILSVLAGLAAMVGYALLSGIVSIQRATPARAPGTRTLGMAEEDEEE | binds | binds | binds | binds
DNAJC11 (protein, UniProt Q9NVH1 1-559) MATALSEEELDNEDYYSLLNVRREASSEELKAAYRRLCMLYHPDKHRDPELKSQAERLFNLVHQAYEVLSDPQTRAIYDIYGKRGLEMEGWEVVERRRTPAEIREEFERLQREREERRLQQRTNPKGTISVGVDATDLFDRYDEEYEDVSGSSFPQIEINKMHISQSIEAPLTATDTAILSGSLSTQNGNGGGSINFALRRVTSAKGWGELEFGAGDLQGPLFGLKLFRNLTPRCFVTTNCALQFSSRGIRPGLTTVLARNLDKNTVGYLQWRWGIQSAMNTSIVRDTKTSHFTVALQLGIPHSFALISYQHKFQDDDQTRVKGSLKAGFFGTVVEYGAERKISRHSVLGAAVSVGVPQGVSLKVKLNRASQTYFFPIHLTDQLLPSAMFYATVGPLVVYFAMHRLIIKPYLRAQKEKELEKQRESAATDVLQKKQEAESAVRLMQESVRRIIEAEESRMGLIIVNAWYGKFVNDKSRKSEKVKVIDVTVPLQCLVKDSKLILTEASKAGLPGFYDPCVGEEKNLKVLYQFRGVLHQVMVLDSEALRIPKQSHRIDTDG | binds | binds | binds | binds
Mitochondrial Fission factor (protein, UniProt Q9GZY8 1-342) MSKGTSSDTSLGRVSRAAFPSPTAAEMAEISRIQYEMEYTEGISQRMRVPEKLKVAPPNADLEQGFQEGVPNASVIMQVPERIVVAGNNEDVSFSRPADLDLIQSTPFKPLALKTPPRVLTLSERPLDFLDLERPPTTPQNEEIRAVGRLKRERSMSENAVRQNGQLVRNDSLWHRSDSAPRNKISRFQAPISAPEYTVTPSPQQARVCPPHMLPEDGANLSSARGILSLIQSSTRRAYQQILDVLDENRRPVLRGGSAAATSNPHHDNVRYGISNIDTTIEGTSDDLTVVDAASLRRQIIKLNRRLQLLEEENKERAKREMVMYSITVAFWLLNSWLWFRR | binds | – | – | –
Peroxiredoxin 4 (protein, UniProt Q13162 38-271) WETEERPRTREEECHFYAGGQVYPGEASRVSVADHSLHLSKAKISKPAPYWEGTAVIDGEFKELKLTDYRGKYLVFFFYPLDFTFVCPTEIIAFGDRLEEFRSINTEVVACSVDSQFTHLAWINTPRRQGGLGPIRIPLLSDLTHQISKDYGVYLEDSGHTLRGLFIIDDKGILRQITLNDLPVGRSVDETLRLVQAFQYTDKHGEVCPAGWKPGSETIIPDPAGKLKYFDKLN | binds | – | – | –
SLC25A20 (protein, UniProt O43772 1-301) MADQPKPISPLKNLLAGGFGGVCLVFVGHPLDTVKVRLQTQPPSLPGQPPMYSGTFDCFRKTLFREGITGLYRGMAAPIIGVTPMFAVCFFGFGLGKKLQQKHPEDVLSYPQLFAAGMLSGVFTTGIMTPGERIKCLLQIQASSGESKYTGTLDCAKKLYQEFGIRGIYKGTVLTLMRDVPASGMYFMTYEWLKNIFTPEGKRVSELSAPRILVAGGIAGIFNWAVAIPPDVLKSRFQTAPPGKYPNGFRDVLRELIRDEGVTSLYKGFNAVMIRAFPANAACFLGFEVAMKFLNWATPNL | – | binds | – | –
Aldehyde Dehydrogenase 1 Family Member L1 (enzyme, UniProt O75891 1-902) MKIAVIGQSLFGQEVYCHLRKEGHEVVGVFTVPDKDGKADPLGLEAEKDGVPVFKYSRWRAKGQALPDVVAKYQALGAELNVLPFCSQFIPMEIISAPRHGSIIYHPSLLPRHRGASAINWTLIHGDKKGGFSIFWADDGLDTGDLLLQKECEVLPDDTVSTLYNRFLFPEGIKGMVQAVRLIAEGKAPRLPQPEEGATYEGIQKKETAKINWDQPAEAIHNWIRGNDKVPGAWTEACEQKLTFFNSTLNTSGLVPEGDALPIPGAHRPGVVTKAGLILFGNDDKMLLVKNIQLEDGKMILASNFFKGAASSVLELTEAELVTAEAVRSVWQRILPKVLEVEDSTDFFKSGAASVDVVRLVEEVKELCDGLELENEDVYMASTFGDFIQLLVRKLRGDDEEGECSIDYVEMAVNKRTVRMPHQLFIGGEFVDAEGAKTSETINPTDGSVICQVSLAQVTDVDKAVAAAKDAFENGRWGKISARDRGRLMYRLADLMEQHQEELATIEALDAGAVYTLALKTHVGMSIQTFRYFAGWCDKIQGSTIPINQARPNRNLTLTRKEPVGVCGIIIPWNYPLMMLSWKTAACLAAGNTVVIKPAQVTPLTALKFAELTLKAGIPKGVVNVLPGSGSLVGQRLSDHPDVRKIGFTGSTEVGKHIMKSCAISNVKKVSLELGGKSPLIIFADCDLNKAVQMGMSSVFFNKGENCIAAGRLFVEDSIHDEFVRRVVEEVRKMKVGNPLDRDTDHGPQNHHAHLVKLMEYCQHGVKEGATLVCGGNQVPRPGFFFEPTVFTDVEDHMFIAKEESFGPVMIISRFADGDLDAVLSRANATEFGLASGVFTRDINKALYVSDKLQAGTVFVNTYNKTDVAAPFGGFKQSGFGKDLGEAALNEYLRVKTVTFEY | – | – | binds | –
Histidyl-tRNA Synthetase 2, mitochondrial (enzyme, UniProt P49590 34-506) QSQVAEAVLTSQLKAHQEKPNFIIKTPKGTRDLSPQHMVVREKILDLVISCFKRHGAKGMDTPAFELKETLTEKYGEDSGLMYDLKDQGGELLSLRYDLTVPFARYLAMNKVKKMKRYHVGKVWRRESPTIVQGRYREFCQCDFDIAGQFDPMIPDAECLKIMCEILSGLQLGDFLIKVNDRRIVDGMFAVCGVPESKFRAICSSIDKLDKMAWKDVRHEMVVKKGLAPEVADRIGDYVQCHGGVSLVEQMFQDPRLSQNKQALEGLGDLKLLFEYLTLFGIADKISFDLSLARGLDYYTGVIYEAVLLQTPTQAGEEPLNVGSVAAGGRYDGLVGMFDPKGHKVPCVGLSIGVERIFYIVEQRMKTKGEKVRTTETQVFVATPQKNFLQERLKLIAELWDSGIKAEMLYKNNPKLLTQLHYCESTGIPLVVIIGEQELKEGVIKIRSVASREEVAIKRENFVAEIQKRLSES | – | – | – | binds
Catalase (enzyme, UniProt P04040 1-527) MADSRDPASDQMQHWKEQRAAQKADVLTTGAGNPVGDKLNVITVGPRGPLLVQDVVFTDEMAHFDRERIPERVVHAKGAGAFGYFEVTHDITKYSKAKVFEHIGKKTPIAVRFSTVAGESGSADTVRDPRGFAVKFYTEDGNWDLVGNNTPIFFIRDPILFPSFIHSQKRNPQTHLKDPDMVWDFWSLRPESLHQVSFLFSDRGIPDGHRHMNGYGSHTFKLVNANGEAVYCKFHYKTDQGIKNLSVEDAARLSQEDPDYGIRDLFNAIATGKYPSWTFYIQVMTFNQAETFPFNPFDLTKVWPHKDYPLIPVGKLVLNRNPVNYFAEVEQIAFDPSNMPPGIEASPDKMLQGRLFAYPDTHRHRLGPNYLHIPVNCPYRARVANYQRDGPMCMQDNQGGAPNYYPNSFGAPEQQPSALEHSIQYSGEVRRFNTANDDNVTQVRAFYVNVLNEEQRKRLCENIAGHLKDAQIFIQKKAVKNFTEVHPDYGSHIQALLDKYNAEKPKNAIHTFVQSGSHLAAREKANL | – | – | – | binds
translocase of inner membrane 23 (protein, UniProt O14925 1-209) MEGGGGSGNKTTGGLAGFFGAGGAGYSHADLAGVPLTGMNPLSPYLNVDPRYLVQDTDEFILPTGANKTRGRFELAFFTIGGCCMTGAAFGAMNGLRLGLKETQNMAWSKPRNVQILNMVTRQGALWANTLGSLALLYSAFGVIIEKTRGAEDDLNTVAAGTMTGMLYKCTGGLRGIARGGLTGLTLTSLYALYNNWEHMKGSLLQQSL | – | binds | binds | binds

No constants are given. Whether binding was seen depends on the method and setting. In cells and extracts the contact can be indirect. A yes stands for co-enrichment or nearness to the bait. Other partners may have been found. For part of these data: Sequences can lack the tags named with a protein.
